Assay results as given in PubChem BioAssay AID1347076 (National Center for Advancing Translational Sciences (NCATS), 2019).
“And” between values parts separate entries of the source, which are not always exact repeats. Identical values can stand only once. Out of some 400,000 compounds screened, about 13,000 (3.2%) were called active. The shares of active, inactive and inconclusive entries below differ from those in the screen. The call rests on the fitted dose curve; in most records, active means well fitted cell-killing curve with a large enough effect; inconclusive means small, poorly fitted or top-dose-only effect, or effect the other way; inactive means flat fitted curve, though single readings scatter. Where the call is inconclusive, the potency comes from a doubtful curve fit.
On the % scale 0 is the no-effect control and ±100 the full control effect; potency means the concentration at half of the fitted maximal effect.

Assay: qHTS assay for MDR1-selective chemotherapeutics: Primary screen using the drug-selected MDR subline cells KB-V1; further: nearly all actives have a fitted effect of over 60% in size
Details: KB-V1 MDR cells viability, CellTiter-Glo, 72 h; activity change, negative = cytotoxicity: at 46.1 µM (top of the series)
Method in brief: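 Cytotoxicity via CellTiter-Glo luminescence after 72 h compound exposure at 37 degrees C. Cells: drug-selected KB-V1 line, DMEM phenol-red free plus 10% FBS. Compounds tested at multiple concentrations; normalized data fitted to concentration-effect curves.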
In the case of `COC(=O)C1=C(c2ccc(-c3ccccc3)c(F)c2)C[C@@H]2CC[C@H]1N2C(=O)NC(C)C`, the Potency is reported as inconclusive: 20.6 µM [cytotoxic, single point].
For `Cc1cccc(-n2c(CC3C(=O)Nc4ccc(C)cc43)nc3ccccc3c2=O)c1` (stereo not drawn), the Potency was “inactive”.
With `CCC(=NCCN1CCCCC1)c1c(O)n(C)c(=O)n(C)c1=O` the Potency was “inactive”.
For `O=C1NCN(c2ccccc2)C12CCN(C(c1cc3ccccc3o1)c1nnnn1C1CCCC1)CC2` (stereo not drawn), the Potency was inconclusive: 18.4 µM [cytotoxic, single point].
In the case of `COc1cc(CN2CCN(c3cc(C)ccc3C)CC2)ccc1O`, the Potency is reported as “inactive”.
With `COc1ccccc1OCC(=O)N1CCCC(N2CCN(c3ccc(F)cc3)CC2)C1` (stereo not drawn) the Potency was “inactive”.
With `COCCN1C(=O)NC(=O)/C(=C\c2ccc(F)cc2)C1=O` the Potency was “inactive”.
In the case of `CCOC(=O)C1(c2ccccc2)CCN(CC(=O)Nc2ccc(C)cc2)CC1`, the Potency is reported as inconclusive: 5.8 µM [cytotoxic, full curve].
In the case of `O=c1[nH]c(=O)n(-c2ccccc2)c(O)c1/C=C1/C(c2ccccc2)=Nc2ccccc21`, the Potency is reported as active: 2.91 µM.
In the case of `CC1=CC2/C=C(\C)CCC(O)C(O)/C=C/C(=O)C23C(=O)NC(CC(C)C)C3C1C` (stereo not drawn), the Potency is reported as inconclusive: 29.1 µM [cytotoxic, single point].
With `CC(=O)OC1C(O)C(C)OC(OC2C(OC(=O)C3CCC4C(C3)OC3(CC(OC(=O)/C=C/c5ccccc5)C(C)CO3)C43CO3)OC(C)C(O)C2OC(C)=O)C1O` (stereo not drawn) the Potency was inconclusive: 13 µM [cytotoxic, partial curve].
In the case of `O=C(CNC(=O)c1ccccc1Cl)Nc1ccc(Br)cc1C(=O)c1ccccc1`, the Potency is reported as inconclusive: 20.6 µM [cytotoxic, single point].
For `O=C(CCc1nnc2ccc(NCc3ccccc3Cl)nn12)N1CCC2(CC1)OCCO2`, the Potency was inconclusive: 11.6 µM [rising, partial curve, poor fit].
For `COc1ccc(C2(c3cccc(O)c3OC)CCN(C(C)=O)CC2)cc1O`, the Potency was inconclusive: 29.1 µM [rising, single point].
For `Cc1cccc(Cn2cccc(C(=O)Nc3nc4ccccc4s3)c2=O)c1`, the Potency was “inactive”.
With `CCOC(=O)c1cc2cc(OC)ccc2n1C1CCN(Cc2ccccc2)CC1` the Potency was inconclusive: 5.8 µM [cytotoxic, partial curve].
In the case of `O=C(c1ccc2c(c1)ncn2C1CCCCCC1)N1CCC2(CC1)OCCO2`, the Potency is reported as inconclusive: 20.6 µM [cytotoxic, single point].
For `CCOC(=O)c1ccc(NC(=O)CSc2nc3c(cc2C#N)N2CCC3CC2)cc1`, the Potency was inconclusive: 5.8 µM [cytotoxic, partial curve].
For `CC(=O)c1ccc2c(c1)C1C(Cl)C(Sc3ccccc3[N+](=O)[O-])CC1C(c1ccccc1)N2` (stereo not drawn), the Potency was inconclusive: 10.3 µM [cytotoxic, partial curve, poor fit].
In the case of `O=C(Nc1nccs1)c1c(O)c2c(n(Cc3ccco3)c1=O)CCCC2`, the Potency is reported as active: 11.6 µM.
For `Cc1c(C(=O)C(=O)N2CCC3(CC2)OCCO3)c2ccccc2n1C`, the Potency was “inactive”.
In the case of `O=C1CC23c4ccccc4N4C(=O)CC5OCC=C6CN1C2CC6C5C43` (stereo not drawn), the Potency is reported as active: 14.6 µM.
With `COC(=O)c1ccccc1NC(=O)N1C[C@@H]2C[C@@H](C1)c1cccc(=O)n1C2` the Potency was inconclusive: 3.26 µM [rising, full curve].
With `COc1ccc(CCNCc2cc(OC)cc(OC)c2)cc1` the Potency was inconclusive: 7.31 µM [cytotoxic, partial curve].
In the case of `CC(=O)C1CCC2(O)C3CCC4=CC(=O)CCC4(C)C3CCC12C` (stereo not drawn), the Potency is reported as inconclusive: 20.6 µM [cytotoxic, partial curve].
With `O=c1[nH]c(=O)n(CCc2ccc(F)cc2)c(O)c1/C=N/N1CCCCC1` the Potency was inconclusive: 13 µM [cytotoxic, partial curve].
With `COc1ccc(-n2c(O)c(C(C)=NCc3ccco3)c(=O)[nH]c2=O)cc1` the Potency was inconclusive: 13 µM [cytotoxic, partial curve].
With `CCOc1ccc(CN2CCN(C(=O)Cc3ccccc3)CC2)cc1` the Potency was “inactive”.
For `CC(C)CCOP(N)(=O)Oc1ccccc1` (stereo not drawn), the Potency was inconclusive: 18.4 µM [cytotoxic, single point].
With `Clc1ccc2[nH]c3c(c2c1)CCNC3` the Potency was inconclusive: 10.3 µM [cytotoxic, partial curve].
For `COc1ccc(CN2CC=C(c3ccc(F)cc3)CC2)cc1Br`, the Potency was inconclusive: 0.0073 µM [rising, full curve].
With `O=C(O)/C=C/c1ccc2c(c1)OCO2` the Potency was “inactive”.
With `COC(=O)C1=C(c2ccc(F)cc2F)C[C@@H]2CC[C@H]1N2C(=O)NC1Cc2ccccc2C1` the Potency was “inactive”.
For `COc1ccc(NC(=O)c2cccn(Cc3ccc(Cl)cc3)c2=O)c(OC)c1`, the Potency was inconclusive: 1.64 µM [cytotoxic, partial curve, poor fit].
For `CC(=O)OC1C2CCCC1C(N1CCCC1)CC2` (stereo not drawn), the Potency was inconclusive: 0.461 µM [rising, full curve, poor fit].
For `COC(=O)C1=C(c2ccc(F)cc2OCc2ccccc2)C[C@@H]2CC[C@H]1N2C(=O)NCCCc1ccccc1`, the Potency was inconclusive: 29.1 µM [cytotoxic, single point].
In the case of `CCOc1ccc2[nH]c(=O)c(CN(CCO)C3(c4nnnn4C4CCCCC4)CCCCC3)cc2c1`, the Potency is reported as inconclusive: 29.1 µM [rising, single point].
For `Cn1cc(C(=O)OCC(=O)N2CCCC2)c2ccccc21`, the Potency was active: 23.1 µM.
For `CN(C(=O)Oc1ccc([N+](=O)[O-])cc1)c1ccccc1`, the Potency was inconclusive: 29.1 µM [cytotoxic, partial curve, poor fit].
For `COc1ccc(C2C=C(C)Oc3c2c(=O)oc2ccccc32)cc1OC` (stereo not drawn), the Potency was “inactive”.
For `S=C(NCCc1ccccc1)N1Cc2cc(Br)ccc2-n2nncc2C1`, the Potency was inconclusive: 18.4 µM [cytotoxic, single point].
With `O=C1Nc2ccccc2/C1=C/c1cnc[nH]1` the Potency was inconclusive: 29.1 µM [cytotoxic, single point].
For `COC(=O)C(C)Oc1cc(C)cc2oc(=O)c3c(c12)CCC3` (stereo not drawn), the Potency was inconclusive: 29.1 µM [cytotoxic, single point].
In the case of `c1cnc2c(c1)ccc1ncccc12`, the Potency is reported as “inactive”.
With `O=C(Nc1ccccc1C(F)(F)F)c1cccn(Cc2ccccc2)c1=O` the Potency was “inactive”.
In the case of `C[C@]12CCC3C(CCC4=C/C(=N/OCC(=O)NC(CCC(=O)O)C(=O)O)CC[C@@]43C)C1CCC2O` (stereo partly drawn), the Potency is reported as inconclusive: 29.1 µM [cytotoxic, single point].
In the case of `CC(=O)c1cccc(OCC(O)CN2CC=C(c3ccccc3)CC2)c1` (stereo not drawn), the Potency is reported as inconclusive: 8.2 µM [cytotoxic, partial curve].
With `Cc1ccccc1-n1c(O)c(C=Nc2ccc(N(C)C)cc2)c(=O)[nH]c1=O` the Potency was active: 2.31 µM.
With `O=C(Nc1ccccc1)c1cccn(Cc2ccccc2)c1=O` the Potency was inconclusive: 29.1 µM [cytotoxic, single point].
With `CC1(C)N2CC3([N+](=O)[O-])CN1CC([N+](=O)[O-])(C2)C3` the Potency was inconclusive: 29.1 µM [rising, single point].
For `O=c1[nH]c(=O)n(Cc2ccco2)c(O)c1C=NCCN1CCNCC1`, the Potency was “inactive”.
In the case of `COc1ccc(NC(=O)CN2C3CCC2CC(O)(c2cccnc2)C3)cc1OC` (stereo not drawn), the Potency is reported as “inactive”.
In the case of `C[C@H]1CCC[C@@H](O)CCC/C=C/c2cc(O)cc(O)c2C(=O)O1`, the Potency is reported as inconclusive: 29.1 µM [cytotoxic, single point].
In the case of `CC1CCCN(c2ccc(C(=O)N3CCC4(CC3)OCCO4)cc2[N+](=O)[O-])C1` (stereo not drawn), the Potency is reported as inconclusive: 16.4 µM [cytotoxic, partial curve].
For `CCc1ccc(CN2CCN(Cc3cc(Br)ccc3O)CC2)cc1`, the Potency was inconclusive: 29.1 µM [cytotoxic, single point].
With `COC(=O)C1=C(c2cc3ccccc3o2)C[C@@H]2CC[C@H]1N2C(=O)N1CCCCC1` the Potency was inconclusive: 29.1 µM [cytotoxic, single point].
With `O=C(Cc1c(Cl)cccc1Cl)N1CCN(Cc2ccccc2)CC1` the Potency was inconclusive: 5.8 µM [cytotoxic, partial curve].
With `O=C(CCl)Nc1nccs1` the Potency was inconclusive: 4.61 µM [cytotoxic, full curve, poor fit].
For `c1ccc(-c2[nH]c(-c3ccccc3)[n+](CC3CO3)c2-c2ccccc2)cc1` (stereo not drawn), the Potency was inconclusive: 23.1 µM [cytotoxic, partial curve].
In the case of `C=C(Cl)CSC(=S)N(CC)CC`, the Potency is reported as inconclusive: 29.1 µM [rising, partial curve, poor fit].
With `CN1CC=C2C(C#N)=C(N)C(C#N)(C#N)C(c3ccncc3)C2C1` (stereo not drawn) the Potency was inconclusive: 29.1 µM [rising, single point].
In the case of `CCCCCCC(C)(C)c1ccc([C@@H]2C[C@H](O)CC[C@H]2CCCO)c(O)c1`, the Potency is reported as inconclusive: 16.4 µM [cytotoxic, single point] and inconclusive: 16.4 µM [cytotoxic, partial curve].
With `NC(=O)C1(N2CCCCC2)CCN(Cc2ccccc2)CC1` the Potency was “inactive”.
With `Cc1nc2cc(C(F)(F)F)ccc2n1C1CCN(Cc2nnnn2Cc2ccc3c(c2)OCO3)CC1` the Potency was active: 18.4 µM.
With `CN(C)C=C1C(=O)N(C2CCCCC2)C(=O)N(C2CCCCC2)C1=O` the Potency was inconclusive: 18.4 µM [cytotoxic, partial curve, poor fit].
For `Clc1ccc(COC(Cn2ccnc2)c2ccc(Cl)cc2Cl)cc1` (stereo not drawn), the Potency was inconclusive: 29.1 µM [cytotoxic, single point].
In the case of `COc1ccc2c(c1OC)C(=O)OC2C1c2cc3c(cc2CCN1C)OCO3` (stereo not drawn), the activity change, negative = cytotoxicity is reported as inconclusive: -15%.
In the case of `O=C(NCC1=C(c2cccc3ccccc23)C[C@@H]2CC[C@H]1N2Cc1ccco1)c1ccc([N+](=O)[O-])cc1`, the Potency is reported as “inactive”.
